Measured values taken from the supplement of paper PMC9233669.
Variants at the background level are over-represented here.

Key:
biotinyl-Ile-oxazolone = assay: self-aminoacylation, catalytic enhancement (BIO) (fold over background); higher = more active; k-Seq, kA / k0A0; sequences stand for … in GGGAAUGGAUCCACAUCUACGAAUUC…UUCACUGCAGACUUGACGAAGCUG
Procedure, shortened: (§1)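 The uncatalyzed rate is the low-activity peak of a bimodal Gaussian fit, and catalytic enhancement is median kA divided by it. The kA values came from pseudo-first-order fits, with 1000 bootstraps, of per-sequence fraction reacted measured by streptavidin capture, triplicate qPCR and Illumina sequencing. Mutagenized RNA pools with a 21-nt variable region (0.43 μM) were reacted with each biotinyl-aminoacyl-oxazolone at 2–1250 μM in 50 μL HEPES/NaCl/KCl/MgCl2/CaCl2 buffer with 5% acetonitrile, pH 6.9–7.0, for 90 minutes at room temperature.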

biotinyl-Leu-oxazolone = assay: self-aminoacylation, catalytic enhancement (BLO) (fold over background); higher = more active; k-Seq, kA / k0A0; sequences stand for … in GGGAAUGGAUCCACAUCUACGAAUUC…UUCACUGCAGACUUGACGAAGCUG
Procedure, shortened: as §1

biotinyl-Trp-oxazolone = assay: self-aminoacylation, catalytic enhancement (BWO) (fold over background); higher = more active; k-Seq, kA / k0A0; sequences stand for … in GGGAAUGGAUCCACAUCUACGAAUUC…UUCACUGCAGACUUGACGAAGCUG
Procedure, shortened: as §1

biotinyl-Met-oxazolone = assay: self-aminoacylation, catalytic enhancement (BMO) (fold over background); higher = more active; k-Seq, kA / k0A0; sequences stand for … in GGGAAUGGAUCCACAUCUACGAAUUC…UUCACUGCAGACUUGACGAAGCUG
Procedure, shortened: as §1

biotinyl-Phe-oxazolone = assay: self-aminoacylation, catalytic enhancement (BFO) (fold over background); higher = more active; k-Seq, kA / k0A0; sequences stand for … in GGGAAUGGAUCCACAUCUACGAAUUC…UUCACUGCAGACUUGACGAAGCUG
Procedure, shortened: as §1

biotinyl-Val-oxazolone = assay: self-aminoacylation, catalytic enhancement (BVO) (fold over background); higher = more active; k-Seq, kA / k0A0; sequences stand for … in GGGAAUGGAUCCACAUCUACGAAUUC…UUCACUGCAGACUUGACGAAGCUG
Procedure, shortened: as §1

Sequence | self-aminoacylation (biotinyl-Ile-oxazolone) | self-aminoacylation (biotinyl-Leu-oxazolone) | self-aminoacylation (biotinyl-Trp-oxazolone) | self-aminoacylation (biotinyl-Met-oxazolone) | self-aminoacylation (biotinyl-Phe-oxazolone) | self-aminoacylation (biotinyl-Val-oxazolone)
AUUGCCCUGGUCAUCGAGCGA [Fam2.1 aminoacylation ribozyme variant] | 1.69 | 3.48 | 3.11 | 2.55 | 3.91 | 2.33
AUUGCCCUGGUCAUCGAGUGC [Fam2.1 aminoacylation ribozyme variant] | 1.99 | 4.73 | 4.08 | 4.79 | 11.6 | 2.32
AUUGCCCUGGUCAUCGUGUGA [Fam2.1 aminoacylation ribozyme variant] | 1.51 | 3.19 | 3.2 | 2.93 | 24 | 1.87
AUUUACCUAGGUCACCGGGUG [Fam2.2 aminoacylation ribozyme variant] | 3.61 | 6.09 | 3.83 | 4.23 | 26.5 | 3.08
CAACACUUCAAGCACUCGGUC [Fam1B.1 aminoacylation ribozyme variant] | 1.34 | 1.07 | 0.937 | 1.12 | 1.02 | 1.22
CAACCCUUCAAGCAAUCGGUC [Fam1B.1 aminoacylation ribozyme variant] | 1.42 | 1.42 | 2.72 | 1.22 | 2.9 | 1.44
CAACUUCAAACAAUCGGUCUG [Fam1A.1 aminoacylation ribozyme variant] | 1.57 | 2.61 | 44.8 | 1.7 | 97.7 | 1.53
CAGUUCGCUAAUAGUCGCAAG [Fam3.1 aminoacylation ribozyme variant] | 1.68 | 1.8 | 1.88 | 1.74 | 1.4 | 1.38
CAGUUUGCUAAUAGUCGCCAG [Fam3.1 aminoacylation ribozyme variant] | 1.86 | 2.43 | 2.45 | 1.91 | 10.1 | 2.17
CAGUUUGCUAAUGGUCGCAAG [Fam3.1 aminoacylation ribozyme variant] | 1.97 | 1.96 | 1.63 | 1.59 | 1.5 | 1.29
CAGUUUGCUUAUAGUCGCAAG [Fam3.1 aminoacylation ribozyme variant] | 0.957 | 1.44 | 0.563 | 1.07 | 1.77 | 1.2
CCAAACGUCAAGCAAUCGGUC [Fam1B.1 aminoacylation ribozyme variant] | 1.42 | 1.46 | 1.16 | 1.52 | 1.38 | 1.97
CCAAACUGCAAGCAAUCGGUC [Fam1B.1 aminoacylation ribozyme variant] | 1.25 | 1.4 | 0.742 | 1.26 | 1.47 | 1.23
CCAAACUUCAAGCAAUCGAUC [Fam1B.1 aminoacylation ribozyme variant] | 0.62 | 0.522 | 0.635 | 0.433 | 1.17 | 0.655
CCAAACUUCAAGCCAUCGGUC [Fam1B.1 aminoacylation ribozyme variant] | 1.15 | 1.03 | 1.01 | 1.28 | 1.07 | 1.18
CCACAAUUCAAGAAAUCGGUC [Fam1B.1 aminoacylation ribozyme variant] | 0.949 | 0.866 | 1.41 | 0.78 | 1.38 | 0.906
CCACAAUUCACGCAAUCGGUC [Fam1B.1 aminoacylation ribozyme variant] | 1.8 | 1.78 | 1.57 | 1.67 | 1.95 | 2.05
CCACACAUCAAGUAAUCGGUC [Fam1B.1 aminoacylation ribozyme variant] | 0.992 | 0.915 | 0.742 | 1.01 | 0.926 | 0.745
CCACACCUCAAACAAUCGGUC [Fam1B.1 aminoacylation ribozyme variant] | 1.24 | 1.29 | 4.47 | 1.04 | 7.05 | 1.13
CCACACCUCAAGCAAUCUGUC [Fam1B.1 aminoacylation ribozyme variant] | 0.463 | 0.364 | 0.339 | 0.427 | 0.689 | 0.631
CCACACUACAAGCAACCGGUC [Fam1B.1 aminoacylation ribozyme variant] | 1.29 | 0.948 | 0.793 | 0.649 | 1.03 | 0.674

Sequence | self-aminoacylation (biotinyl-Ile-oxazolone) | self-aminoacylation (biotinyl-Leu-oxazolone) | self-aminoacylation (biotinyl-Trp-oxazolone) | self-aminoacylation (biotinyl-Met-oxazolone) | self-aminoacylation (biotinyl-Phe-oxazolone) | self-aminoacylation (biotinyl-Val-oxazolone)
CCACACUACAAGCAAUUGGUC [Fam1B.1 aminoacylation ribozyme variant] | 0.758 | 0.529 | 0.594 | 0.546 | 0.908 | 0.839
CCACACUACAAGCAGUCGGUC [Fam1B.1 aminoacylation ribozyme variant] | 0.9 | 0.972 | 0.95 | 0.97 | 0.944 | 1.04
CCACACUCCAAGCAAGCGGUC [Fam1B.1 aminoacylation ribozyme variant] | 1.38 | 0.855 | 0.741 | 0.857 | 0.791 | 1.07
CCACACUCCAAGCAAUCGGAC [Fam1B.1 aminoacylation ribozyme variant] | 1.09 | 1.37 | 0.574 | 0.74 | 0.729 | 0.937
CCACACUCCAAGCAAUCGGUU [Fam1B.1 aminoacylation ribozyme variant] | 1.38 | 1.11 | 1.28 | 1.35 | 1.22 | 1.47
CCACACUGCAAGCAAUCAGUC [Fam1B.1 aminoacylation ribozyme variant] | 0.79 | 0.852 | 0.551 | 0.584 | 1.1 | 0.741
CCACACUGCAAGCAAUCGUUC [Fam1B.1 aminoacylation ribozyme variant] | 0.949 | 0.703 | 0.711 | 0.893 | 0.774 | 0.996
CCACACUGCAAGCAGUCGGUC [Fam1B.1 aminoacylation ribozyme variant] | 1.36 | 1.58 | 1.25 | 1.04 | 0.623 | 1.75
CCACACUGCAAGUAAUCGGUC [Fam1B.1 aminoacylation ribozyme variant] | 0.952 | 1.11 | 1.03 | 0.919 | 0.95 | 1.04
CCACACUUAAAGCAAUUGGUC [Fam1B.1 aminoacylation ribozyme variant] | 0.855 | 0.623 | 0.523 | 0.723 | 0.759 | 0.765
CCACACUUACAGCAAUCGGUC [Fam1B.1 aminoacylation ribozyme variant] | 0.991 | 0.739 | 0.937 | 0.881 | 1.08 | 1.07
CCACACUUCAAACAAUCGGUA [Fam1B.1 aminoacylation ribozyme variant] | 0.873 | 0.734 | 1.47 | 0.947 | 1.62 | 1.02
CCACACUUCAAAGAAUCGGUC [Fam1B.1 aminoacylation ribozyme variant] | 0.988 | 1.17 | 9.57 | 0.888 | 12.1 | 0.955
CCACACUUCAAGAAAUCGGUA [Fam1B.1 aminoacylation ribozyme variant] | 0.926 | 1.11 | 0.682 | 0.99 | 0.659 | 0.903
CCACACUUCAAGAAAUUGGUC [Fam1B.1 aminoacylation ribozyme variant] | 0.66 | 0.698 | 0.449 | 0.592 | 0.563 | 0.516
CCACACUUCAAGCAAACGUUC [Fam1B.1 aminoacylation ribozyme variant] | 0.717 | 0.546 | 0.573 | 0.613 | 0.768 | 0.854
CCACACUUCAAGCAACCGCUC [Fam1B.1 aminoacylation ribozyme variant] | 1.92 | 1.62 | 1.59 | 1.78 | 8.07 | 2.09
CCACACUUCAAGCAACCGGUA [Fam1B.1 aminoacylation ribozyme variant] | 1.24 | 1.42 | 0.636 | 1.35 | 1.34 | 1.47
CCACACUUCAAGCAAGCUGUC [Fam1B.1 aminoacylation ribozyme variant] | 0.504 | 0.404 | 0.346 | 0.451 | 0.716 | 0.565
CCACACUUCAAGCAAUAGGUA [Fam1B.1 aminoacylation ribozyme variant] | 0.903 | 0.781 | 0.552 | 0.652 | 1.05 | 0.84
CCACACUUCAAGCAAUAGGUC [Fam1B.1 aminoacylation ribozyme variant] | 0.643 | 0.539 | 0.559 | 0.543 | 1.22 | 0.682
